Data published in the supplement of paper PMC11637464.
Counter-ions that a name gives are not always drawn. Some of the results follow. Single values are uncertain, as repeats are few or missing.

Tested on: primary mouse Muller glia with Ascl1 overexpression
Experiment: progenitor-like (ProL) cell count fold change vs Ascl1-only control (log2 fold change); higher = more progenitor-like cells
Experimental: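 Primary P11 mouse Muller glia carrying dox-inducible Ascl1 were treated with Tocriscreen Stem Cell Library compounds at 0.1, 1 or 10 uM together with doxycycline for 5 days, then profiled by sci-Plex hashing and sci-RNA-seq2. Cells were annotated by marker genes and cell-type counts per well were size-factor adjusted. Read-outs are the log2 fold change of Neuronal (NeuPre + bipolar) and ProL cell counts versus the Ascl1-only control wells of the same collection day, plus the raw number of recovered cells per well. There is one well per dose, and wells with fewer than 20 cells were discarded.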

Row | SMILES | progenitor-like (log2) (0.1 µM) | progenitor-like (log2) (1 µM) | progenitor-like (log2) (10 µM)
1 | O=C(O)c1ccc(S(=O)(=O)NC2CCCCC2)cc1 (collection day: 2) | 0 | 0.0317 | 0.236
2 | Oc1nc(-c2ccc(C(F)(F)F)cc2)nc2c1CSCC2 (collection day: 2) | 0.0627 | 0.341 | 0.209
3 | CCCCC(CC)CNC(=N)NC(=N)NCCCCCCNC(=N)NC(=N)NCC(CC)CCCC (centres undefined) [Alexidine dihydrochloride] (collection day: 2) | -2.17 | – | –
4 | Cc1ccccc1N=Nc1ccc(NC(=O)c2ccnn2C)c(C)c1 (collection day: 2) | 0 | -0.0324 | –
5 | C=CCNc1ncnc2ccc(Br)cc12 (collection day: 2) | -0.0656 | -0.134 | 0.508
6 | CN(C)C(=N)NC(=N)N [Metformin hydrochloride] (collection day: 1) | 0.241 | 0.348 | 0.67
7 | CCn1c(=O)[nH]c2ccccc21 (collection day: 1) | 0.399 | 0.541 | 0.295
8 | O=c1cc(N2CCOCC2)oc2c(-c3ccccc3)cccc12 (collection day: 1) | 0.447 | 0.585 | 1.21
9 | Cc1ccc(/C=N/NC(=O)c2ccccc2Oc2ccccc2)o1 (collection day: 2) | 0.236 | 0.181 | -0.0995
10 | Nc1ncnc2c1nc(Br)n2[C@@H]1O[C@@H]2COP(=O)(O)O[C@H]2[C@H]1O [8-Bromo-cAMP, sodium salt] (collection day: 1) | 0.399 | 0.495 | 0.863
11 | Nc1ncn([C@@H]2O[C@H](CO)[C@@H](O)[C@H]2O)c(=O)n1 [5-Azacytidine] (collection day: 2) | 0.181 | 0.236 | -0.0324
12 | O=C(NO)c1ccc2[nH]c(=O)c(CCCc3ccccc3)nc2c1 (collection day: 2) | -0.134 | 0.29 | -0.737
13 | CC1=C(C(=O)Nc2cc3cn[nH]c3cc2F)C(c2ccc(C(F)(F)F)cc2)CC(=O)N1 (centres undefined) (collection day: 2) | -0.134 | 0.181 | -0.0995
14 | COc1ccn2ncc(-c3nc4[nH]nc(NC(=O)c5ccc(F)cc5)c4cc3F)c2c1 (collection day: 2) | 0.209 | 0.462 | 0.617

One compound at a time (already shown):
Nc1ncn([C@@H]2O[C@H](CO)[C@@H](O)[C@H]2O)c(=O)n1 [5-Azacytidine] (collection day: 2) is entered as progenitor-like (log2) (0.1 µM): 0.181; progenitor-like (log2) (1 µM): 0.236; progenitor-like (log2) (10 µM): -0.0324
COc1ccn2ncc(-c3nc4[nH]nc(NC(=O)c5ccc(F)cc5)c4cc3F)c2c1 (collection day: 2) is entered as progenitor-like (log2) (0.1 µM): 0.209; progenitor-like (log2) (1 µM): 0.462; progenitor-like (log2) (10 µM): 0.617
